Assay results from patent US20240016923A1.
Results are given in words; binding and its absence hold for the method and conditions named. Some entries that bind do so weakly or less than the wild type.

Key:
[1] = biological target: membrane-bound E1E2 (mbE1E2) (Hepatitis C virus, isolate H77C (genotype 1a)) (UniProt P27958); assay: SPR, antigen immobilized, CD81-LEL injected
[2] = biological target: secreted E1E2 with c-Fos/c-Jun leucine zipper scaffold (sE1E2.LZ) (Hepatitis C virus H77; human); assay: SPR, antigen immobilized, CD81-LEL injected
[3] = biological target: secreted E1E2 with c-Fos/c-Jun leucine zipper scaffold (sE1E2.LZ) (Hepatitis C virus H77; human); assay: summary of the ELISA and SPR results

Measured: binding

B1: CD81 large extracellular loop (CD81-LEL) (receptor, UniProt P60033 113-201, looked up, not shown: small tags and cut ends)
chain: FVNKDQIAKDVKQFYDQALQQAVVDDDANNAKAVVKTFHETLDCCGSSTLTALTTSVLKNNLCPSGSNIISNLFKEDCHQKIDDLFSGK
binds: all assays above
